Assay results published in the supplement of paper PMC7877785.
± gives the uncertainty stated by the source. Many of these values have a large error.

Assay: self-splicing fitness, log relative to wild type (ln ratio); higher = more splicing; Tetrahymena group I intron in knt gene, E. coli kanamycin selection, DiMSum; sequences stand for … in CUCUCU…GGAGGGAAAAGUUAUCAGGCAUGCACCUGGUAGCUAGUCUUUAAACCAAUAGAUUGCAUCGGUUUAAAAGGCAAGACCGUCAAAUUGCGGGAAAGGGGUCAACAGCCGUUCAGUACCAAGUCUCAGGGGAAACUUUGAGAUGGCCUUGCAAAGGGUAUGGUAAUAAGCUGACGGACAUGGUCCUAACCACGCAGCCAAGUCCUAAGUCAACAGAUCUUCUGUUGAUAUGGAUGCAGUUCACAGACUAAAUGUCGGUCGGGGAAGAUGUAUUCUUCUCAUAAGAUAUAGUCGGACCUCUCCUUAAUGGGAGCUAGCGGAUGAAGUGAUGCAACACUGGAGCCGCUGGGAACUAAUUUGUAUGCGAAAGUAUAUUGAUUAGUUUUGGAGUACUCGUGGUCG
Procedure, shortened: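 Six replicate transformations of E. coli BL21(DE3) with a pET-22b(+) library were grown overnight at 37°C or 30°C. The library randomised all eight P1ex-region intron nucleotides, the intron lying in the knt kanamycin-resistance gene, and plates were LB agar with or without 25 μg/mL kanamycin plus 100 μg/mL carbenicillin, 50 μM IPTG and 0.2% rhamnose. Pooled colonies were amplicon-sequenced on an Illumina HiSeq 2500, and fitness is the DiMSum error-weighted combination of wild-type-normalised replicate fold changes, kanamycin versus none.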

Sequence | self-splicing fitness (ln) (37 °C) | self-splicing fitness (ln) (30 °C)
AGUUAGCAAUAUUACGCCCC | -1.13 ± 0.6 | –
CGUGAGCAAUAUUACGCCGC | -1.83 ± 1.1 | -3.52 ± 1.1
AGUAAGCAAUAUUACGAGUC | -1.45 ± 0.17 | -2.96 ± 0.23
CUGGAGCAAUAUUACGGCUA | – | -3 ± 0.77
AGAGAGCAAUAUUACGGAGC | -0.595 ± 1.4 | -1.29 ± 0.82
CAUCAGCAAUAUUACGCCCC | -1.53 ± 0.5 | –
UCUGAGCAAUAUUACGAGCC | -2.92 ± 0.61 | –
ACGGAGCAAUAUUACGGAAA | – | -4.51 ± 0.73
GGAUAGCAAUAUUACGGGAC | -2.15 ± 0.17 | -2.5 ± 0.24
GGGAAGCAAUAUUACGUCGG | – | -3.6 ± 0.59
UCUAAGCAAUAUUACGUUUC | – | -4.52 ± 0.51
AUCUAGCAAUAUUACGUCUU | 0.147 ± 0.1 | -0.776 ± 0.077
UCGUAGCAAUAUUACGCCAC | -1.6 ± 0.59 | -2.15 ± 0.69
CCGCAGCAAUAUUACGCUUC | -3.22 ± 0.52 | –
AUCGAGCAAUAUUACGCCGA | -2.05 ± 1.1 | –
GAAGAGCAAUAUUACGGACG | -2.77 ± 0.53 | –
GGGGAGCAAUAUUACGUGAC | -2.02 ± 0.53 | -1.86 ± 0.6
GACGAGCAAUAUUACGAAAU | -2.79 ± 0.53 | –
CUAUAGCAAUAUUACGAAAC | – | -3.89 ± 1
GACGAGCAAUAUUACGUCAG | – | -4.43 ± 0.52
UAGGAGCAAUAUUACGCGCU | -1.9 ± 0.81 | -5.04 ± 1
CCGAAGCAAUAUUACGAACC | -2.41 ± 0.63 | –
CAUCAGCAAUAUUACGUUCC | -2.47 ± 1.1 | -3.39 ± 1
AUUGAGCAAUAUUACGCUAC | -3.05 ± 0.53 | –

Single records, as listed above:
AGAGAGCAAUAUUACGGAGC is entered as self-splicing fitness (ln) (37 °C): -0.595 ± 1.4; self-splicing fitness (ln) (30 °C): -1.29 ± 0.82
UCGUAGCAAUAUUACGCCAC is entered as self-splicing fitness (ln) (37 °C): -1.6 ± 0.59; self-splicing fitness (ln) (30 °C): -2.15 ± 0.69

(continued)

Sequence | self-splicing fitness (ln) (37 °C) | self-splicing fitness (ln) (30 °C)
UAUUAGCAAUAUUACGGGCC | -1.56 ± 0.52 | –
UGUGAGCAAUAUUACGAGAC | -2.78 ± 0.62 | -1.38 ± 0.64
UAUCAGCAAUAUUACGAGGC | – | -3.47 ± 0.52
GAUCAGCAAUAUUACGCAGG | -1.09 ± 0.12 | -3.3 ± 0.29
UUAGAGCAAUAUUACGUAGU | -3.47 ± 0.42 | -1.3 ± 0.21
CUGGAGCAAUAUUACGAAAG | -1.27 ± 0.51 | –
UUUUAGCAAUAUUACGCUUC | – | -2.99 ± 0.61
CGCGAGCAAUAUUACGGGCC | -2.87 ± 0.75 | –
GGAGAGCAAUAUUACGUUGA | – | -3.26 ± 1
UUGGAGCAAUAUUACGACCG | -2.69 ± 0.62 | -1.27 ± 0.71
CUUCAGCAAUAUUACGGCGA | -3.05 ± 0.52 | -4.05 ± 0.72
GCCGAGCAAUAUUACGGAGC | -2.64 ± 1.1 | –
GAUUAGCAAUAUUACGAGAC | -1.1 ± 0.22 | -1.51 ± 0.3
GCAGAGCAAUAUUACGCACU | – | -3.7 ± 1.1
GAAGAGCAAUAUUACGCUGC | -2.63 ± 0.48 | -5.06 ± 0.58
CAUUAGCAAUAUUACGGCAU | -1.66 ± 0.17 | -2.99 ± 0.21
CGGUAGCAAUAUUACGACUA | 0.0316 ± 0.16 | -0.298 ± 0.14
AAUCAGCAAUAUUACGCGCU | -0.732 ± 0.084 | -1.16 ± 0.075
UCUAAGCAAUAUUACGCGGC | -1.59 ± 0.36 | –
UCUAAGCAAUAUUACGCCUA | – | -4.34 ± 0.59
UCUAAGCAAUAUUACGCUUG | – | -4.37 ± 0.59
AAUGAGCAAUAUUACGCGAC | – | -4.1 ± 1
UGUUAGCAAUAUUACGGCAU | -1.95 ± 0.27 | -3.67 ± 0.32
